Test results published in publication PMC7696408.
Results are given in words; binding and its absence hold for the method and conditions named. Binding seen in cells or lysates may run through a third protein. These calls come from enrichment with a bait or labelling near it, and not all partners need be listed.

The binders below were run against FlagBirA*-HRAS (human) (UniProt P01112) (assay: proximity labelling; BioID: FlagBirA*-RAS bait in Flp-In T-REx 293 cells, 1 µg/mL tetracycline and 50 µM biotin for 24 h; modified RIPA lysis, Streptavidin Sepharose capture, trypsin, LC-MS/MS; hits at SAINT score ≥ 0.75; labelling radius ~10 nm).

Row | binding | Binder
1 | binds | STX12 (protein, UniProt Q86Y82 1-276) MSYGPLDMYRNPGPSGPQLRDFSSIIQTCSGNIQRISQATAQIKNLMSQLGTKQDSSKLQENLQQLQHSTNQLAKETNELLKELGSLPLPLSTSEQRQQRLQKERLMNDFSAALNNFQAVQRRVSEKEKESIARARAGSRLSAEERQREEQLVSFDSHEEWNQMQSQEDEVAITEQDLELIKERETAIRQLEADILDVNQIFKDLAMMIHDQGDLIDSIEANVESSEVHVERATEQLQRAAYYQKKSRKKMCILVLVLSVIILILGLIIWLVYKTK
2 | binds | VPS33A (protein, UniProt Q96AX1 1-596) MAAHLSYGRVNLNVLREAVRRELREFLDKCAGSKAIVWDEYLTGPFGLIAQYSLLKEHEVEKMFTLKGNRLPAADVKNIIFFVRPRLELMDIIAENVLSEDRRGPTRDFHILFVPRRSLLCEQRLKDLGVLGSFIHREEYSLDLIPFDGDLLSMESEGAFKECYLEGDQTSLYHAAKGLMTLQALYGTIPQIFGKGECARQVANMMIRMKREFTGSQNSIFPVFDNLLLLDRNVDLLTPLATQLTYEGLIDEIYGIQNSYVKLPPEKFAPKKQGDGGKDLPTEAKKLQLNSAEELYAEIRDKNFNAVGSVLSKKAKIISAAFEERHNAKTVGEIKQFVSQLPHMQAARGSLANHTSIAELIKDVTTSEDFFDKLTVEQEFMSGIDTDKVNNYIEDCIAQKHSLIKVLRLVCLQSVCNSGLKQKVLDYYKREILQTYGYEHILTLHNLEKAGLLKPQTGGRNNYPTIRKTLRLWMDDVNEQNPTDISYVYSGYAPLSVRLAQLLSRPGWRSIEEVLRILPGPHFEERQPLPTGLQKKRQPGENRVTLIFFLGGVTFAEIAALRFLSQLEDGGTEYVIATTKLMNGTSWIEALMEKPF
3 | binds | TMED10 (protein, UniProt P49755 32-219) ISFHLPINSRKCLREEIHKDLLVTGAYEISDQSGGAGGLRSHLKITDSAGHILYSKEDATKGKFAFTTEDYDMFEVCFESKGTGRIPDQLVILDMKHGVEAKNYEEIAKVEKLKPLEVELRRLEDLSESIVNDFAYMKKREEEMRDTNESTNTRVLYFSIFSMFCLIGLATWQVFYLRRFFKAKKLIE
4 | binds | TIMM13 (protein, UniProt Q9Y5L4 1-95) MEGGFGSDFGGSGSGKLDPGLIMEQVKVQIAVANAQELLQRMTDKCFRKCIGKPGGSLDNSEQKCIAMCMDRYMDAWNTVSRAYNSRLQRERANM
5 | binds | VAMP4 (protein, UniProt O75379 1-141) MPPKFKRHLNDDDVTGSVKSERRNLLEDDSDEEEDFFLRGPSGPRFGPRNDKIKHVQNQVDEVIDVMQENITKVIERGERLDELQDKSESLSDNATAFSNRSKQLRRQMWWRGCKIKAIMALVAAILLLVIIILIVMKYRT
6 | binds | YWHAH (protein, UniProt Q04917 1-246) MGDREQLLQRARLAEQAERYDDMASAMKAVTELNEPLSNEDRNLLSVAYKNVVGARRSSWRVISSIEQKTMADGNEKKLEKVKAYREKIEKELETVCNDVLSLLDKFLIKNCNDFQYESKVFYLKMKGDYYRYLAEVASGEKKNSVVEASEAAYKEAFEISKEQMQPTHPIRLGLALNFSVFYYEIQNAPEQACLLAKQAFDDAIAELDTLNEDSYKDSTLIMQLLRDNLTLWTSDQQDEEAGEGN
7 | binds | TBC1D10A (protein, UniProt Q9BXI6 1-508) MAKSNGENGPRAPAAGESLSGTRESLAQGPDAATTDELSSLGSDSEANGFAERRIDKFGFIVGSQGAEGALEEVPLEVLRQRESKWLDMLNNWDKWMAKKHKKIRLRCQKGIPPSLRGRAWQYLSGGKVKLQQNPGKFDELDMSPGDPKWLDVIERDLHRQFPFHEMFVSRGGHGQQDLFRVLKAYTLYRPEEGYCQAQAPIAAVLLMHMPAEQAFWCLVQICEKYLPGYYSEKLEAIQLDGEILFSLLQKVSPVAHKHLSRQKIDPLLYMTEWFMCAFSRTLPWSSVLRVWDMFFCEGVKIIFRVGLVLLKHALGSPEKVKACQGQYETIERLRSLSPKIMQEAFLVQEVVELPVTERQIEREHLIQLRRWQETRGELQCRSPPRLHGAKAILDAEPGPRPALQPSPSIRLPLDAPLPGSKAKPKPPKQAQKEQRKQMKGRGQLEKPPAPNQAMVVAAAGDACPPQHVPPKDSAPKDSAPQDLAPQVSAHHRSQESLTSQESEDTYL
8 | binds | STX7 (protein, UniProt O15400 1-261) MSYTPGVGGDPAQLAQRISSNIQKITQCSVEIQRTLNQLGTPQDSPELRQQLQQKQQYTNQLAKETDKYIKEFGSLPTTPSEQRQRKIQKDRLVAEFTTSLTNFQKVQRQAAEREKEFVARVRASSRVSGSFPEDSSKERNLVSWESQTQPQVQVQDEEITEDDLRLIHERESSIRQLEADIMDINEIFKDLGMMIHEQGDVIDSIEANVENAEVHVQQANQQLSRAADYQRKSRKTLCIIILILVIGVAIISLIIWGLNH
9 | binds | VAT1 (protein, UniProt Q99536 1-393) MSDEREVAEAATGEDASSPPPKTEAASDPQHPAASEGAAAAAASPPLLRCLVLTGFGGYDKVKLQSRPAAPPAPGPGQLTLRLRACGLNFADLMARQGLYDRLPPLPVTPGMEGAGVVIAVGEGVSDRKAGDRVMVLNRSGMWQEEVTVPSVQTFLIPEAMTFEEAAALLVNYITAYMVLFDFGNLQPGHSVLVHMAAGGVGMAAVQLCRTVENVTVFGTASASKHEALKENGVTHPIDYHTTDYVDEIKKISPKGVDIVMDPLGGSDTAKGYNLLKPMGKVVTYGMANLLTGPKRNLMALARTWWNQFSVTALQLLQANRAVCGFHLGYLDGEVELVSGVVARLLALYNQGHIKPHIDSVWPFEKVADAMKQMQEKKNVGKVLLVPGPEKEN
10 | binds | TIMM23 (protein, UniProt O14925 1-209) MEGGGGSGNKTTGGLAGFFGAGGAGYSHADLAGVPLTGMNPLSPYLNVDPRYLVQDTDEFILPTGANKTRGRFELAFFTIGGCCMTGAAFGAMNGLRLGLKETQNMAWSKPRNVQILNMVTRQGALWANTLGSLALLYSAFGVIIEKTRGAEDDLNTVAAGTMTGMLYKCTGGLRGIARGGLTGLTLTSLYALYNNWEHMKGSLLQQSL
11 | binds | STX6 (protein, UniProt O43752 1-255) MSMEDPFFVVKGEVQKAVNTAQGLFQRWTELLQDPSTATREEIDWTTNELRNNLRSIEWDLEDLDETISIVEANPRKFNLDATELSIRKAFITSTRQVVRDMKDQMSTSSVQALAERKNRQALLGDSGSQNWSTGTTDKYGRLDRELQRANSHFIEEQQAQQQLIVEQQDEQLELVSGSIGVLKNMSQRIGGELEEQAVMLEDFSHELESTQSRLDNVMKKLAKVSHMTSDRRQWCAIAILFAVLLVVLILFLVL
12 | binds | YKT6 (protein, UniProt O15498 1-198) MKLYSLSVLYKGEAKVVLLKAAYDVSSFSFFQRSSVQEFMTFTSQLIVERSSKGTRASVKEQDYLCHVYVRNDSLAGVVIADNEYPSRVAFTLLEKVLDEFSKQVDRIDWPVGSPATIHYPALDGHLSRYQNPREADPMTKVQAELDETKIILHNTMESLLERGEKLDDLVSKSEVLGTQSKAFYKTARKQNSCCAIM

Each binder was assayed against FlagBirA*-KRAS4B (human) (UniProt P01116) in the same assay as above.

Row | binding | Binder
13 | binds | RASA2 (protein, UniProt Q15283 1-850) MAAAAPAAAAASSEAPAASATAEPEAGDQDSREVRVLQSLRGKICEAKNLLPYLGPHKMRDCFCTINLDQEEVYRTQVVEKSLSPFFSEEFYFEIPRTFQYLSFYVYDKNVLQRDLRIGKVAIKKEDLCNHSGKETWFSLQPVDSNSEVQGKVHLELKLNELITENGTVCQQLVVHIKACHGLPLINGQSCDPYATVSLVGPSRNDQKKTKVKKKTSNPQFNEIFYFEVTRSSSYTRKSQFQVEEEDIEKLEIRIDLWNNGNLVQDVFLGEIKVPVNVLRTDSSHQAWYLLQPRDNGNKSSKTDDLGSLRLNICYTEDYVLPSEYYGPLKTLLLKSPDVQPISASAAYILSEICRDKNDAVLPLVRLLLHHDKLVPFATAVAELDLKDTQDANTIFRGNSLATRCLDEMMKIVGGHYLKVTLKPILDEICDSSKSCEIDPIKLKEGDNVENNKENLRYYVDKLFNTIVKSSMSCPTVMCDIFYSLRQMATQRFPNDPHVQYSAVSSFVFLRFFAVAVVSPHTFHLRPHHPDAQTIRTLTLISKTIQTLGSWGSLSKSKSSFKETFMCEFFKMFQEEGYIIAVKKFLDEISSTETKESSGTSEPVHLKEGEMYKRAQGRTRIGKKNFKKRWFCLTSRELTYHKQPGSKDAIYTIPVKNILAVEKLEESSFNKKNMFQVIHTEKPLYVQANNCVEANEWIDVLCRVSRCNQNRLSFYHPSVYLNGNWLCCQETGENTLGCKPCTAGVPADIQIDIDEDRETERIYSLFTLSLLKLQKMEEACGTIAVYQGPQKEPDDYSNFVIEDSVTTFKTIQQIKSIIEKLDEPHEKYRKKRSSSAKYGSKENPIVGKAS
14 | binds | MOSPD2 (protein, UniProt Q8NHP6 1-518) MAENHAQNKAKLISETRRRFEAEYVTDKSDKYDARDVERLQQDDNWVESYLSWRHNIVDETLKMLDESFQWRKEISVNDLNESSIPRWLLEIGVIYLHGYDKEGNKLFWIRVKYHVKDQKTILDKKKLIAFWLERYAKRENGKPVTVMFDLSETGINSIDMDFVRFIINCFKVYYPKYLSKIVIFDMPWLMNAAFKIVKTWLGPEAVSLLKFTSKNEVQDYVSVEYLPPHMGGTDPFKYSYPPLVDDDFQTPLCENGPITSEDETSSKEDIESDGKETLETISNEEQTPLLKKINPTESTSKAEENEKVDSKVKAFKKPLSVFKGPLLHISPAEELYFGSTESGEKKTLIVLTNVTKNIVAFKVRTTAPEKYRVKPSNSSCDPGASVDIVVSPHGGLTVSAQDRFLIMAAEMEQSSGTGPAELTQFWKEVPRNKVMEHRLRCHTVESSKPNTLTLKDNAFNMSDKTSEDICLQLSRLLESNRKLEDQVQRCIWFQQLLLSLTMLLLAFVTSFFYLLYS
